± gives the standard deviation. This is a selection; strong and weak results do not stand in their true shares. Many entries were measured with a wide error.

This assay relates to MIWI (PIWIL1) piRISC loaded with L1MC piRNA (30 nt). The assay can be described thus: pre-steady-state target cleavage rate (min^-1); MIWI and MILI are mouse PIWI proteins and EfPiwi is from a freshwater sponge; tags in brackets are library labels; higher = faster piRNA-guided slicing of the target. The following applies: guide: L1MC piRNA 5'p-UAACUAAAUACUAUGCAAGCUGUAGGUCCU; auxiliary factor: none (no GTSF1). In a few lines: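 Active affinity-purified piRISC (1 nM) loaded with one synthetic guide was mixed with a transcribed, DNA-blocked target RNA library (0.1 nM), with or without 500 nM GTSF1 partner protein, in HEPES–potassium acetate buffer at 33 °C for 0–8 or 0–960 min. Uncleaved targets were sequenced, normalised to depth and to weakly complementary targets, and pooled across three trials, with k3 capped at 0.0001 min^-1. The pre-steady-state cleavage rate was determined with a burst-and-steady-state fit.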
For the sequence UCCUGGAUGUCCUUGCAUAGUAUUAUGUAA, the “pre-steady-state target cleavage rate” value stood at 0.0007 ± 0.011.

In the case of UCCUGCUACAGCUUCGAUAGUAUUUACAAA, the “pre-steady-state target cleavage rate” value was 0.000524 ± 0.011.

Consider UCCUGGAUCUCCUUGCAUAGUAUUUUCAAA, for which the “pre-steady-state target cleavage rate” value is 0.0013 ± 0.0049.

UCCUGGAUGUGCUUGCAUAGUAUUAUCUUA: the “pre-steady-state target cleavage rate” value was determined as 0.00108 ± 0.0072.

As to UCCUCCUACAGCUUGCAUAGUAAUUUCAAA, the “pre-steady-state target cleavage rate” value is 0.000729 ± 0.0096.

In the case of UCCUGGUACAGCUUGCAUACAUUUUAGAAA, the “pre-steady-state target cleavage rate” value is 0.000306 ± 0.009.

As for UCCUGGAUCAGCUUCCAUAGAAUUUAGUUA, the “pre-steady-state target cleavage rate” value was 0.000738 ± 0.0081.

Turning to UCCUCCUACAGCUUGCUAUAGUAUUUAGUUA, the “pre-steady-state target cleavage rate” value was found to be 0.000954 ± 0.0067.

Regarding UCCUGGUACAGCUUGCAUUCAAUUUUCAAA, the “pre-steady-state target cleavage rate” value is 0.000247 ± 0.014.

Regarding UCCUCCUACAGCUUGCAUUCAAUUUAGAAA, the “pre-steady-state target cleavage rate” value amounted to 0.000334 ± 0.0096.

Regarding UCCUGGAUGUCGUUGCAUAGUUUAUAGUUA, the “pre-steady-state target cleavage rate” value worked out at 0.00064 ± 0.011.

As for UCCUGGUAGUGCUUGCAUAGUAUUUUCAAA, the “pre-steady-state target cleavage rate” value was 0.00203 ± 0.0029.

As for UCCUGCUACUCGUUGCAUAGUAUUUACAAA, the “pre-steady-state target cleavage rate” value stood at 0.00129 ± 0.0047.

As for UCCUGCUACAGCUUGCAUAGUAUUUUCUAA, the “pre-steady-state target cleavage rate” value was 0.00222 ± 0.0041.

For UCCUGGAACAGCUUCGUUAGUAUUUACAAA, the “pre-steady-state target cleavage rate” value was determined as 0.00076 ± 0.0062.

Turning to UCCUCCUACUCGUUGCAUAGUAUUUAGAAA, the “pre-steady-state target cleavage rate” value worked out at 0.00152 ± 0.0035.

As for UCCUGGAUGUCGUUGCAUACUAUUUAGUAA, the “pre-steady-state target cleavage rate” value was 0.000583 ± 0.011.

Take UCCUGGAUGUGCUUCCAUAGUAUUUAGUAA: the “pre-steady-state target cleavage rate” value came to 0.000955 ± 0.0078.

As to UCCUGGAUCAGCAACCAUAGUAUUUAGUAA, the “pre-steady-state target cleavage rate” value amounted to 0.000367 ± 0.01.

With UCCUGGAUCAGCAAGCAUAGUAUUUACAAA, the “pre-steady-state target cleavage rate” value came out at 0.000912 ± 0.0061.

UCCUCCUACAGCUUGCAUAGUAAUAAGUUA: the “pre-steady-state target cleavage rate” value was found to be 0.00136 ± 0.0038.

Take UCCUGGAUCAGCUUCGAUAGUAUUUAGAAA: the “pre-steady-state target cleavage rate” value turned out to be 0.000867 ± 0.006.

For UCCUGGAUGUCCUAGCAUUGUAUUUAGUUA, the “pre-steady-state target cleavage rate” value came out at 0.000862 ± 0.0074.

Regarding UCCUGGUACAGCAACCAUAGUAUUUAGAAA, the “pre-steady-state target cleavage rate” value stood at 0.00105 ± 0.0091.
